Measured values: PMC10264389
These are yes or no findings as the source states them, for the method shown. Binding seen in cells or lysates may run through a third protein. Some entries that bind do so weakly or less than the wild type. Where a sequence is shown, tags or fusion partners need not be part of it. One block for each binder: values may come before it.

Legend:
HALO-NESPRIN3α = target: T1, HALO-NESPRIN3α (UniProt Q4FZC9); test: co-IP; HEK293 co-transfected with HALO-NESPRIN3α, GFP-SUN1 and TMX4-V5 or TMX4C67A-V5; HALO-NESPRIN3α isolated with HALO-Trap agarose beads, 2 h at 4 °C; non-reducing and reducing gels; western blot with anti-V5 and anti-HALO
T1 sequence: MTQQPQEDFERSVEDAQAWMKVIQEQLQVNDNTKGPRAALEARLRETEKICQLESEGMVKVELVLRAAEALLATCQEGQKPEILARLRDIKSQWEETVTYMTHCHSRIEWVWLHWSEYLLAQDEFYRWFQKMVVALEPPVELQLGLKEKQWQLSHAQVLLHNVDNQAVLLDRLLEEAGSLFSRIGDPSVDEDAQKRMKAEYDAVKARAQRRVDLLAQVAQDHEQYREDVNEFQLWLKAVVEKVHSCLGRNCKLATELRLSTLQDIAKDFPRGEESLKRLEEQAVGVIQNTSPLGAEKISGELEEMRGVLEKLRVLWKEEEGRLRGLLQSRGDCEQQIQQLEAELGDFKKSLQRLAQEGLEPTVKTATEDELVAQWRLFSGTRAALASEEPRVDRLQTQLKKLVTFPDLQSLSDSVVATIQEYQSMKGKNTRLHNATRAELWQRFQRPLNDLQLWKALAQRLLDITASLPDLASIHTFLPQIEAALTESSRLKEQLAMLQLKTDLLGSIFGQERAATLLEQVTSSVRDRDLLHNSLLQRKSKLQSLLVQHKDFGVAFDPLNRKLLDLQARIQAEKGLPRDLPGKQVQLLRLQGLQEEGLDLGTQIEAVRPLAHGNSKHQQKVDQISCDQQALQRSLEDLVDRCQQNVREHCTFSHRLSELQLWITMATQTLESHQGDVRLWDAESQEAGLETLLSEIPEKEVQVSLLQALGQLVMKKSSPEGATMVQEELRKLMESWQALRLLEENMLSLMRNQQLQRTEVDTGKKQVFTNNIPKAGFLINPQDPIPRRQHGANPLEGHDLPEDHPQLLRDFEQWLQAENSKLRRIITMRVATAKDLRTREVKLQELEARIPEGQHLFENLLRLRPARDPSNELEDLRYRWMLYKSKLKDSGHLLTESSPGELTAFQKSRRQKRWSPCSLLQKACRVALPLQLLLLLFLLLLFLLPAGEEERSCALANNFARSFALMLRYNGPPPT

TMX4-V5 = target: T2, TMX4-V5 (UniProt Q9H1E5); test: co-IP; HEK293 co-transfected with HALO-NESPRIN3α, GFP-SUN1 and TMX4-V5 or TMX4C67A-V5; immunoisolation from lysates with anti-V5 antibody; non-reducing gel; western blot with anti-V5, anti-HALO and anti-GFP; mixed disulfides
T2 sequence: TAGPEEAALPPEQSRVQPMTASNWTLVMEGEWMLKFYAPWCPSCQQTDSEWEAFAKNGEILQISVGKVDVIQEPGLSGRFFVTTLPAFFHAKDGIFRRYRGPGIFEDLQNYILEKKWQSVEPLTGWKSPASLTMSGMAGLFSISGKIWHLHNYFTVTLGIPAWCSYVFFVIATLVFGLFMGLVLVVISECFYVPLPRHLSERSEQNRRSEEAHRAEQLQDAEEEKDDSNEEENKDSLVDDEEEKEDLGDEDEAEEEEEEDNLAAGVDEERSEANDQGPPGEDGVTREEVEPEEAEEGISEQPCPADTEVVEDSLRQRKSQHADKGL

binding (HALO-NESPRIN3α): binds
B1: TMX4-V5 (enzyme, UniProt Q9H1E5 24-349)
chain: T2 sequence

binding (TMX4-V5): binds
B2: HALO-NESPRIN3α (protein, UniProt Q4FZC9 1-975)
chain: T1 sequence
